# PubChem BioAssay AID1259308 – NCATS – 2017
# Aim: 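Knock-downs that increase output of a recombinant reporter protein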 (primary screen)
# Cells: human HEK293 embryonic kidney cells stably expressing firefly luciferase (HEK-CMV-Luc2-Hygro)
# Knock-down reagent: single siRNA against human genes, 0.8 pmol siRNA per well
# Duration: 72 h
# Detection: 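Luciferase light (ONE-Glo) measured on one replicate plate set and viability (CellTiter-Glo) on the other, scaled to a negative control siRNA, with robust z-scores and luciferase per cell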
# Reading the numbers: total luciferase, z-score and total luciferase, % of control: higher = more reporter protein produced; luciferase per cell, z-score: higher = more reporter output per viable cell; viable cells, % of control: higher = more viable cells
# Hit rule: 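Active when the median/MAD z-score for overall luciferase is greater than 3; a gene was taken forward for validation with new siRNAs if at least two of its three siRNAs passed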
# Meaning of the calls: active = raised luciferase; inactive = no rise
# This is an unselected part of about 59,000 reagents tested. About 1,510 of them (2.6%) were called active. 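Calls use total luciferase alone and ignore viability, so some active siRNAs may act by altering cell number.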 Unmarked entries are inactive. Reagents against one gene are numbered here. No sequences are given here.
target gene,siRNA no.,"total luciferase, z-score","total luciferase, % of control","luciferase per cell, z-score","viable cells, % of control"
RBM19,1,-0.391,74.1,-0.00905,83
RBM19,2,0.532,92.5,1.22,74.9
RBM19,3,-1.35,55.1,-1.76,97.7
CHID1,1,0.476,91.4,0.501,89.5
CHID1,2,-0.151,78.9,-0.349,96.7
CHID1,3,1.83,118,2.32,71.8
MTRR,1,1.2,106,0.822,95.2
MTRR,2,0.622,94.3,1.61,68.9
MTRR,3,0.0215,82.3,0.236,86.4
TAB3,1,0.243,86.7,-0.0116,97.2
TAB3,2,0.946,101,0.839,90.2
TAB3,3,-1.13,59.4,-0.933,84.8
TRNAU1AP,1,0.0404,82.7,-0.453,104
TRNAU1AP,2,0.212,86.1,-0.247,103
TRNAU1AP,3,-1.33,55.5,-1.29,87
PRMT9,1,-0.313,75.7,-0.272,90.8
PRMT9,2,-0.62,69.6,-0.999,101
PRMT9,3,0.0245,82.4,0.737,75.8
LPAL2,1,1.69,116,1.45,88.2
LPAL2,2,-0.138,79.1,-0.682,106
LPAL2,3,-2.09,40.3,-1.5,66.8
DCUN1D4,1,1.34,109,2.24,67.3
DCUN1D4,2,0.477,91.4,1.27,73
DCUN1D4,3,3.62 (active),154,2.61,86.6
NEK5,1,-1.65,49.2,-2.21,98.3
NEK5,2,0.395,89.7,-0.267,108
NEK5,3,0.2,85.9,-0.416,107
ATF6B,1,-0.296,76,-0.334,92.8
ATF6B,2,-2.38,34.5,-3.25,90.8
ATF6B,3,-0.166,78.6,0.261,82

Reformatted: 4 of the entries above
target gene	siRNA no.	total luciferase, z-score	total luciferase, % of control	luciferase per cell, z-score	viable cells, % of control
RBM19	3	-1.35	55.1	-1.76	97.7
CHID1	1	0.476	91.4	0.501	89.5
CHID1	2	-0.151	78.9	-0.349	96.7
CHID1	3	1.83	118	2.32	71.8

Additional results follow:
target gene,siRNA no.,"total luciferase, z-score","total luciferase, % of control","luciferase per cell, z-score","viable cells, % of control"
TET3,1,2.04,122,2.46,71.6
TET3,2,1.09,104,0.732,95.5
TET3,3,-0.678,68.4,-0.956,98.3
NOTCH2,1,-0.341,75.1,0.637,71
NOTCH2,2,0.568,93.2,0.529,90.6
NOTCH2,3,0.61,94,0.398,94.6
LINC01913,1,0.572,93.3,0.466,92.2
LINC01913,2,-0.353,74.9,-1.15,113
LINC01913,3,0.866,99.1,0.222,104
ADAM7,1,0.459,91,-0.229,108
ADAM7,2,-0.349,75,-0.964,108
ADAM7,3,1.22,106,0.729,97.8
GET1P1,1,-3.04,21.4,-3.57,61.2
GET1P1,2,0.251,86.9,0.691,80.9
GET1P1,3,0.337,88.6,0.142,95.3
B3GALNT2,1,-1.56,50.9,-1.87,93.2
B3GALNT2,2,0.203,85.9,-0.386,106
B3GALNT2,3,-0.858,64.8,-0.824,90
RHOF,1,0.513,92.1,1.36,72
RHOF,2,1.6,114,1.54,84.8
RHOF,3,0.0988,83.9,-0.351,103
OLIG1,1,0.402,89.9,-0.125,104
OLIG1,2,-1.45,53,-1.54,88.9
OLIG1,3,1.03,102,1.75,72.2
CHST5,1,-0.958,62.8,-0.835,87.5
CHST5,2,-0.525,71.4,-1.32,113
CHST5,3,-0.893,64.1,-0.551,82.8
